Some of the results follow. Most values lie at the level of the controls, where differences are scatter.
Compound: CN[C@@H]1C[C@H]2O[C@@](C)([C@@H]1OC)n1c3ccccc3c3c4c(c5c6ccccc6n2c5c31)C(=O)NC4 [staurosporine]
Assay: log2 fold change of pooled soluble protein (PISA), ligand vs vehicle (log2 ratio); higher = more thermally stabilized
Conditions: ligand concentration: 20 uM; assay format: PISA pool 52.9/55.5/58.6 C

Protein sequences, listed by entry. Tags and fused reporters are not part of them. Lines headed by an entry give the natural chain unless they say otherwise; changes in a name come on top.
UniProt Q9D6R2: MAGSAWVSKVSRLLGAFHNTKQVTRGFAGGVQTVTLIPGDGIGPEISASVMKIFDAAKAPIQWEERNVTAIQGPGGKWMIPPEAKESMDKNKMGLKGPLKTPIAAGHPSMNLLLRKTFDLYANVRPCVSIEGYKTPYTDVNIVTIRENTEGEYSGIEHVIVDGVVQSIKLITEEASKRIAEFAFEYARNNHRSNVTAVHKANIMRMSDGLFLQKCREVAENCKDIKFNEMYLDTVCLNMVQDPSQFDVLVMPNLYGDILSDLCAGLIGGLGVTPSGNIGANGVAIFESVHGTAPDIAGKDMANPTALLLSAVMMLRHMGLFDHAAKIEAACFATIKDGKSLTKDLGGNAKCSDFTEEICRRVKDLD
UniProt Q9CY50: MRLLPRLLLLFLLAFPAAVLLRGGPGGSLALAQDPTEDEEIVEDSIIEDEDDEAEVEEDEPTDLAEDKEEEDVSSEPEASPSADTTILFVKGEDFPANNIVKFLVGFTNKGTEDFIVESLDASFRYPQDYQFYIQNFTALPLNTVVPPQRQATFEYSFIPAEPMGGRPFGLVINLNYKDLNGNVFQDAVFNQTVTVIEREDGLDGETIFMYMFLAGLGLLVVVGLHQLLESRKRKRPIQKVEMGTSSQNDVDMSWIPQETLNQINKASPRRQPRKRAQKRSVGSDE
UniProt Q9D0E3: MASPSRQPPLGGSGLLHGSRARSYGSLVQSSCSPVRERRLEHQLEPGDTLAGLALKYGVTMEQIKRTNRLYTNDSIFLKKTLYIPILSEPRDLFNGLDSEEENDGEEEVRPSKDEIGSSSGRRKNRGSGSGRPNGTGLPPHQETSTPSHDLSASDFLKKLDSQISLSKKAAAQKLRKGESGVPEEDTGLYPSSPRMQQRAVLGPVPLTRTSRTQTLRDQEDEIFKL
UniProt Q9CXT8: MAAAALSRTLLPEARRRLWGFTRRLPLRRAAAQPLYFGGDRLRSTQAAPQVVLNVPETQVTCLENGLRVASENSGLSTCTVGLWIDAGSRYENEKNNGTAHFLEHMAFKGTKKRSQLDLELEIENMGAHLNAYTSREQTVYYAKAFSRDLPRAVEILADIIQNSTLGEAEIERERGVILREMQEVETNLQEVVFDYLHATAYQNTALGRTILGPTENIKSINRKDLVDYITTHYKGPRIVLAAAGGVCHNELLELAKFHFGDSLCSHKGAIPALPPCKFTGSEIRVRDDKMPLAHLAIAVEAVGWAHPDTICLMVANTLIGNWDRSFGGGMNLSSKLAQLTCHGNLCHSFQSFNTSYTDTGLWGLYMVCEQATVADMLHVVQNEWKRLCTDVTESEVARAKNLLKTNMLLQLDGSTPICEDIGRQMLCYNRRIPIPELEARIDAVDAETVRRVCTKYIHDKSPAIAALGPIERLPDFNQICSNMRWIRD
UniProt Q9D2R6: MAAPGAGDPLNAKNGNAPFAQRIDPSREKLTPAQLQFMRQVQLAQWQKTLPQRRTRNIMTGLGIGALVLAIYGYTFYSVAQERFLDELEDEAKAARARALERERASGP
UniProt Q9CYK1: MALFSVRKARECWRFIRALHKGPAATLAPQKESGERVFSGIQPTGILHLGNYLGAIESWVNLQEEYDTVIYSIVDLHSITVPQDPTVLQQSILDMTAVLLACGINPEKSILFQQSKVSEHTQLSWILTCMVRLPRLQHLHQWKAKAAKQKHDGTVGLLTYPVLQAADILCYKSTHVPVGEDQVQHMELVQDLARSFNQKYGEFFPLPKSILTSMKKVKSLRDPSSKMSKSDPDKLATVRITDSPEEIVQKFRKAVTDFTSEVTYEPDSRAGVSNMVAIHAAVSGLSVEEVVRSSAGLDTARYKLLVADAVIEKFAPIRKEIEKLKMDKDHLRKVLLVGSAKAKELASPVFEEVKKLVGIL
UniProt Q9D906: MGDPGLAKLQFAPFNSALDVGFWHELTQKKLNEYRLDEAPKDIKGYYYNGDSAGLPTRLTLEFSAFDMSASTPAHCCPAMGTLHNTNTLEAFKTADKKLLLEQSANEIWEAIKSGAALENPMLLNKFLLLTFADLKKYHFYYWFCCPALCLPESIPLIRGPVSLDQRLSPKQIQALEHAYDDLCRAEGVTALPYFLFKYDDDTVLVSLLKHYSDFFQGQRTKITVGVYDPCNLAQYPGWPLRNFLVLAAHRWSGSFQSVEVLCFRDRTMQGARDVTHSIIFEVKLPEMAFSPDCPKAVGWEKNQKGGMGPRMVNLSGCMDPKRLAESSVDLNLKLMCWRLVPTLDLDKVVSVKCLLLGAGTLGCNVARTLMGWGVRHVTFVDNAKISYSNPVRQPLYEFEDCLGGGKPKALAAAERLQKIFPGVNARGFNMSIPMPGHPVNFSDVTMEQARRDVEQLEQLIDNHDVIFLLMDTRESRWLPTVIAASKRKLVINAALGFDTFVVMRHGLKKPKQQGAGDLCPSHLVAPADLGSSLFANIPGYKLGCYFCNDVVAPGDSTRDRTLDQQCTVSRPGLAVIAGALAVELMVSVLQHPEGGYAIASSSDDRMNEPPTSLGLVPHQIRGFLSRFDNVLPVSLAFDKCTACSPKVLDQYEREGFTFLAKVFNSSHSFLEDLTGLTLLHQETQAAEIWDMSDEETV
UniProt Q9D4F2: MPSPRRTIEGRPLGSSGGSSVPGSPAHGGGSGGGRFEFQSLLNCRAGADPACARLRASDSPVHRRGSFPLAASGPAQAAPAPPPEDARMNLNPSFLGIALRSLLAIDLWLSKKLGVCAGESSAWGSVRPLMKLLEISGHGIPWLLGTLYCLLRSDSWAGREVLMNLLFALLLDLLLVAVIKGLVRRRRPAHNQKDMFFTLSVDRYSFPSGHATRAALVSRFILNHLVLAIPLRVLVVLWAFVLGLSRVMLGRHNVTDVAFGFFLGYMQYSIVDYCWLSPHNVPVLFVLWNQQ
UniProt Q9CYI0: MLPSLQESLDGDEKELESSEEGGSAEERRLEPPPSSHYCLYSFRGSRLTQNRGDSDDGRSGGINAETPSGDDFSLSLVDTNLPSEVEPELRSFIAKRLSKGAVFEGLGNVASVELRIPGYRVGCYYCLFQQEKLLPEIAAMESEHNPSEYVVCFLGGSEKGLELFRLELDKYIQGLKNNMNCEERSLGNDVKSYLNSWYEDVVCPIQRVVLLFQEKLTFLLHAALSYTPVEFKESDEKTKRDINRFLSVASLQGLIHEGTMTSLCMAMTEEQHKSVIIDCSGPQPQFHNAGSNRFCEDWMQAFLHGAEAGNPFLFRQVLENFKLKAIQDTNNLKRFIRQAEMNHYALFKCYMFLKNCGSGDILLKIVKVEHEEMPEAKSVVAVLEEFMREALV
UniProt Q9CZE3: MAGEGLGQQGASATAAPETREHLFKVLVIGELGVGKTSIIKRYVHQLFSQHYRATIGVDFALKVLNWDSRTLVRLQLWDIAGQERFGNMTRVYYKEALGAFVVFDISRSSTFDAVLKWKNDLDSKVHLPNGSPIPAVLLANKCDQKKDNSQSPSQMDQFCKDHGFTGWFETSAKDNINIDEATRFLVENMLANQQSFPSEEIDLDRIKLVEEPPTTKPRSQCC
UniProt Q9DC07: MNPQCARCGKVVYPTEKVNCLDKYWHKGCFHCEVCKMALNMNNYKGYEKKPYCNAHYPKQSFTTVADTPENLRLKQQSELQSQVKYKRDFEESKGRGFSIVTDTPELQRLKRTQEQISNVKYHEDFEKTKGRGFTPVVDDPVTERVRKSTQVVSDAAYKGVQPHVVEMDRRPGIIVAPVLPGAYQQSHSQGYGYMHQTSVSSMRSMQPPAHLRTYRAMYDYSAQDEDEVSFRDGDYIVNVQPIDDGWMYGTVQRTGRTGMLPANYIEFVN
UniProt Q9DBM2: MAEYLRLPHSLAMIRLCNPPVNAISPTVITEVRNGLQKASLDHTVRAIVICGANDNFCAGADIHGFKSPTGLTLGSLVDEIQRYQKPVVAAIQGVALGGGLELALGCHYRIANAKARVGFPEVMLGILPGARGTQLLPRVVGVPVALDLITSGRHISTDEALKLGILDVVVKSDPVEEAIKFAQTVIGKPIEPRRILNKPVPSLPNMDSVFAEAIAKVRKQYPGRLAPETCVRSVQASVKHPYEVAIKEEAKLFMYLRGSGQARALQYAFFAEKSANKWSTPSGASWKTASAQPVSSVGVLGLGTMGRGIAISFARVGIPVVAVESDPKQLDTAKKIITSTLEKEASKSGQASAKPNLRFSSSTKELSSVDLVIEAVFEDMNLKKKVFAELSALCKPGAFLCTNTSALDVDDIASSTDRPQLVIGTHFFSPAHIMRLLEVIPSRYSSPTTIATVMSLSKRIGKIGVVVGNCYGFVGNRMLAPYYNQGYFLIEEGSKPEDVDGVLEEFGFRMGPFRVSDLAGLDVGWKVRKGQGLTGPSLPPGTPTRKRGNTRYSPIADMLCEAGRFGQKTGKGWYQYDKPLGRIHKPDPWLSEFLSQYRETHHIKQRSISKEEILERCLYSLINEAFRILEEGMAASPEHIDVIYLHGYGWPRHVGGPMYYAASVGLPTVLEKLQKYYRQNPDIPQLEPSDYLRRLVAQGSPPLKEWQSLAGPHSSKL
UniProt Q9CZB0: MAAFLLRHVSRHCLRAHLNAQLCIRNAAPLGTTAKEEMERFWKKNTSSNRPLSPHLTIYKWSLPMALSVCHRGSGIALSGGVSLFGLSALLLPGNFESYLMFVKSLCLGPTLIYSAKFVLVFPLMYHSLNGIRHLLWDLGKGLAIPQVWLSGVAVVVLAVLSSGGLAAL
UniProt Q9D2V7: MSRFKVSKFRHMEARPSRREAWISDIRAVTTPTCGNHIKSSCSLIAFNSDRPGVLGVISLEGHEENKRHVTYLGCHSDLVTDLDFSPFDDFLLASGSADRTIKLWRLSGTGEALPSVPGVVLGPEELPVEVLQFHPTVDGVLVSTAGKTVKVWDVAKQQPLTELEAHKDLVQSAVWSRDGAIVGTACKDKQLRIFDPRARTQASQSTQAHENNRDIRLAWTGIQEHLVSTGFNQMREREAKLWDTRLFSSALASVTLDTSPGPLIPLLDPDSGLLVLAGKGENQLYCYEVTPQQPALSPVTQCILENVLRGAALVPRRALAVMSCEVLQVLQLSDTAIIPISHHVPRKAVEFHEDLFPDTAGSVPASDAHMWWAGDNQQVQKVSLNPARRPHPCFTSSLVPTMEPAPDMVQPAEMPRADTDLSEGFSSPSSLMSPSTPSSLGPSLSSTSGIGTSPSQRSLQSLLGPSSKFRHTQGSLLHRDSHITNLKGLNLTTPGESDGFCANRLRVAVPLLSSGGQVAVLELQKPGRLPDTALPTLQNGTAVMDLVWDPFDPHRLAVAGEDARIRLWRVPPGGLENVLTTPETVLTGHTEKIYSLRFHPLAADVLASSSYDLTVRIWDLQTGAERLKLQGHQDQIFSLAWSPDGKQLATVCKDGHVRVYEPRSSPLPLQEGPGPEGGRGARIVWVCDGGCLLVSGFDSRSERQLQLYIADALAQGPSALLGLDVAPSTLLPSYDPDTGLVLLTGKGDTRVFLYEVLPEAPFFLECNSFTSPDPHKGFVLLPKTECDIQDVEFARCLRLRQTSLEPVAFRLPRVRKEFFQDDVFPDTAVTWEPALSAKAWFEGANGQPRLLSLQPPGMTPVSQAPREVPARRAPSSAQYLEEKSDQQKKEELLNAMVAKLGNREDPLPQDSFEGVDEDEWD
UniProt Q9CZU6: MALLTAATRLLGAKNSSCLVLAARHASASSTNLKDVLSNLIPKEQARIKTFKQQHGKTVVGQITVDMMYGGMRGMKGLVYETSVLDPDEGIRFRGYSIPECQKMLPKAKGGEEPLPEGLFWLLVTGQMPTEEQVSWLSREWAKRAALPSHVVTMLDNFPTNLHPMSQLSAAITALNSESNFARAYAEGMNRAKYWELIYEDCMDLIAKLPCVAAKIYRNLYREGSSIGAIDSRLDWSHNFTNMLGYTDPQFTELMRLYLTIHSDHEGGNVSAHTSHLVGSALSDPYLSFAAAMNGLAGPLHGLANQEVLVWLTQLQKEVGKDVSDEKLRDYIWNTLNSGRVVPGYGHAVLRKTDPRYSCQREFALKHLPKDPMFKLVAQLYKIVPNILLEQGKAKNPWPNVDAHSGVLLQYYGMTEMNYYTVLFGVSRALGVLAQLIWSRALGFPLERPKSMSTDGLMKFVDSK
UniProt Q9D0M1: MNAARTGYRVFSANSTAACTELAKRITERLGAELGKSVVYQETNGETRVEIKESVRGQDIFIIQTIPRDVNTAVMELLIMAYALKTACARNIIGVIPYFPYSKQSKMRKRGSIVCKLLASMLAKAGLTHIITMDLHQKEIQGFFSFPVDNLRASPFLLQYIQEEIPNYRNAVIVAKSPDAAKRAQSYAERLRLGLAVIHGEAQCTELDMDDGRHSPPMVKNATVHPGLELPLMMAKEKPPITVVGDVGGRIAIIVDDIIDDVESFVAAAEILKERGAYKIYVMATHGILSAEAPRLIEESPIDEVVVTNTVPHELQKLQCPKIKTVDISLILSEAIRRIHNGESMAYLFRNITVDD

Target | log2 fold change of pooled soluble protein
UniProt Q9D8P4 | 0.184
UniProt Q9D6R2 | 0.0319
UniProt Q9CY50 | -0.0239
UniProt Q9D892 | -0.192
UniProt Q9D0E3 | -0.242
UniProt Q9CZW5 | -0.0256
UniProt Q9D7B6 | -0.00832
UniProt Q9D1F4 | -0.147
UniProt Q9D8B6 | -0.0165
UniProt Q9CXT8 | 0.23
UniProt Q9D2R6 | -0.0399
UniProt Q9CYK1 | -0.291
UniProt Q9DAK9 | 0.0988
UniProt Q9D906 | 0.363
UniProt Q9D4F2 | -0.102
UniProt Q9D8B7 | 0.482
UniProt Q9CYI0 | 0.000665
UniProt Q9CZE3 | 0.00348

Part of the list above, reformatted:
Target	log2 fold change of pooled soluble protein
UniProt Q9D8P4	0.184
UniProt Q9D6R2	0.0319
UniProt Q9CY50	-0.0239
UniProt Q9D892	-0.192
UniProt Q9D0E3	-0.242
UniProt Q9D1F4	-0.147
UniProt Q9CXT8	0.23
UniProt Q9D2R6	-0.0399
UniProt Q9D8B7	0.482

Following part.

Target | log2 fold change of pooled soluble protein
UniProt Q9CZV8 | -0.171
UniProt Q9CYR0 | -0.000328
UniProt Q9DC07 | 0.0952
UniProt Q9DBM2 | 0.0192
UniProt Q9D0I9 | 0.0313
UniProt Q9CZB0 | 0.202
UniProt Q9D554 | -0.134
UniProt Q9CZ13 | -0.0871
UniProt Q9D2V7 | -0.107
UniProt Q9DB20 | -0.154
UniProt Q9CZU6 | -0.0354
UniProt Q9DBF1 | -0.0294
UniProt Q9D1M0 | 0.0662
UniProt Q9D1Q4 | -0.182
UniProt Q9D1E6 | -0.00903
UniProt Q9CYU6 | -0.417
UniProt Q9D620 | -0.422
UniProt Q9D0M1 | -0.191

Source: the supplement of paper PMC12819154, “High-throughput peptide-centric local stability assay extends protein–ligand identification to membrane proteins, tissues and bacteria” (Nature Structural & Molecular Biology, 2025)
